For at least one entry, the source does not settle the construct or the ends of the probe. Tags and fusion partners may be left off the protein sequences shown.

This data set concerns the target T1, RspR (YdfH) (Escherichia coli K-12 W3110 type-A) (UniProt P0ACM2).
T1 sequence (looked up, limits assumed): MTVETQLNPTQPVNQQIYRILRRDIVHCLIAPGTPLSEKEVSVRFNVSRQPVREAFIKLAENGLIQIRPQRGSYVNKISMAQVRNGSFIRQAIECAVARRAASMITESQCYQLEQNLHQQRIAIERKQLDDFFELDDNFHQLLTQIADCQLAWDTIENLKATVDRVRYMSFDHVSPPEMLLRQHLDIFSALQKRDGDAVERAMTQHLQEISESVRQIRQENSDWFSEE
As to the kind of experiment: EMSA. The conditions noted are these: EMSA: gel shift buffer (composition not given), 37 C 30 min, PAGE, GelRed; recombinant protein; protein details: His-tag (pET21a vector); label: none (GelRed stain); probe letters rebuilt from the primers and the genome.

With “GAAATTATTGGATGCTTTCTGCCCTGGTTGTGGTTAAAACGAAACGCCAGTATCTGGCTGTTGCTTCCGGCGGGGATTTCACTGGCGCTGTTTGTCTGGTTGTTAACGTTGCATCCAGCGGCGAGTGGGCGTGTTTACGCGGCTTATGGTGGCGTTTATGTCTGCACGGCGTTGATGTGGCTGCGCGTTGTGGATGGCGTGAAACTGACTCTTTATGACTGGACGGGTGCGTTGATTGCGCTTTGCGGCATGTTGATCATTGTTGCGGGCTGGGGGCGCACGTAGGAACATAAATCCATTTTATCAATAAGATAAGAGGAAGTGTCAGCTGACAAAAGGTATTCTATTTCATCTTTTGTCAACCATTCACAGCGCAAATATACGCCTTTTTTTGTGATCACTCCGGCTTTTTTCGATCTTTATACTTGTATGGTAGTAGCTCAGTTGCGTAGATTTCATGCATCACGACAAGCGATGCAAGGAATCGAAC (double strand) [rspA promoter probe (gel shift)]”, the binding result was “binds”.

For the origin of these results see article PMC8249747.
